Laboratory results reported in paper doi:10.1101/2021.01.24.427949.
No constants are given. Whether binding was seen depends on the method and setting. In cells and extracts the contact can be indirect. Some results given as binding are weak or reduced against the parent protein; the word gives no strength.

T1: phosphoglycerate dehydrogenase (Phgdh) (mouse (endogenous in 4T1 primary tumor)) (UniProt Q61753)
T1 sequence: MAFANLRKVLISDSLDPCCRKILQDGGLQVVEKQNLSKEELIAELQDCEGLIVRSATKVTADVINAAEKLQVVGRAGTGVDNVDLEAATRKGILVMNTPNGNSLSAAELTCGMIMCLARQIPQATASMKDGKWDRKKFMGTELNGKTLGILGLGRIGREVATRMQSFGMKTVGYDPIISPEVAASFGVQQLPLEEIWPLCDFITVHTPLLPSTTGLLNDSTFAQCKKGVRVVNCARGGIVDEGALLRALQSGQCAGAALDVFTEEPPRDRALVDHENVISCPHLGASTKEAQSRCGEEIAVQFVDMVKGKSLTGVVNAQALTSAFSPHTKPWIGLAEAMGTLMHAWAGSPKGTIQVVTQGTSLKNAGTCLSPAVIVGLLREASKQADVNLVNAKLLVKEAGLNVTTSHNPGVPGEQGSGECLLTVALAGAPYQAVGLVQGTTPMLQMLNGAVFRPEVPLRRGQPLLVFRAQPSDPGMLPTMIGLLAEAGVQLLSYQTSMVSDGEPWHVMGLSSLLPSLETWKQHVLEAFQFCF


Molecular target: T1, phosphoglycerate dehydrogenase (Phgdh) (mouse (endogenous in 4T1 primary tumor))
Assay: co-IP

| binding | Binder |
| --- | --- |
| binds | phosphofructokinase isoform PfkM (enzyme, UniProt P47857 1-780) MTHEEHHAAKTLGIGKAIAVLTSGGDAQGMNAAVRAVVRVGIFTGARVFFVHEGYQGLVDGGEHIREATWESVSMMLQLGGTVIGSARCKDFREREGRLRAAHNLVKRGITNLCVIGGDGSLTGADTFRSEWSDLLNDLQKDGKITAEEATKSSYLNIVGLVGSIDNDFCGTDMTIGTDSALHRIVEIVDAITTTAQSHQRTFVLEVMGRHCGYLALVTSLSCGADWVFIPECPPDDDWEEHLCRRLSETRTRGSRLNIIIVAEGAIDKNGKPITSEDIKNLVVKRLGYDTRVTVLGHVQRGGTPSAFDRILGSRMGVEAVMALLEGTPDTPACVVSLSGNQAVRLPLMECVQVTKDVTKAMDEKRFDEAIKLRGRSFMNNWEVYKLLAHVRPPVSKGGLHTVAVMNVGAPAAGMNAAVRSTVRIGLIQGNRVLVVHDGFEGLAKGQIEEAGWSYVGGWTGQGGSKLGTKRTLPKKNLEQISANITKFNIQGLVIIGGFEAYTGGLELMEGRKQFDELCIPFVVIPATVSNNVPGSDFSIGADTALNTICTTCDRIKQSAAGTKRRVFIIETMGGYCGYLATMAGLAAGADAAYIFEEPFTIRDLQVNVEHLVQKMKTTVKRGLVLRNEKCNENYTTDFIFNLYSEEGKGIFDSRKNVLGHMQQGGSPTPFDRNFATKMGAKAMNWMSGKIKESYRNGRIFANTPDSGCVLGMRKRALVFQPVTELKDQTDFEHRIPKEQWWLKLRPILKILAKYEIDLDTSDHAHLEHISRKRSGEAAV |
| binds | phosphofructokinase isoform PfkP (enzyme, UniProt Q9WUA3 1-784) MSDLDSSSSSAYPKYLEHLSGDGKAIGVLTSGGDAQGMNAAVRAVVRMGIYTGAKVYFIYEGYQGLVDGGSNIVEAKWDCVSSILQVGGTIIGSARCKAFRSREGRLKAACNLARLGITNLCVIGGDGSLTGANLFRKEWSGLLEELARNGDIDNDTVQKYSYLNVVGMVGSIDNDFCGTDMTIGTDSALHRIIEVVDAIMTTAQSHQRTFVLEVMGRHCGYLALVSALTCGADWVFLPESPPEEDWEENMCLKLSENRARKKRLNIIIVSEGAIDMQNKPITSEKIKELVVKNLGFDTRVTILGHVQRGGTPSAFDRILASRMGVEAVIALLEATPETPACVVSLRGNQAVRLPLMECVQMTQDVQKAMDERRFKEAVKLRGRRFEGNLNTYKRLAIKLPDEKIVKSNCNVAVINVGAPAAGMNAAVRSAVRVGIADGHKMFAIYDGFEGFANGQIKEIGWADVGGWTGQGGSILGTKRTLPGKYLEKIAEQMHSHSINALLIIGGFEAYLGLLELAAAREKHEAFCVPMVMVPATVSNNVPGSDFSIGADTALNTITDTCDRIKQSASGTKRRVFIIETMGGYCGYLANMGALAAGADAAYIFEEPFDIGDLQSNVVHLTEKMKTSIQRGLVLRNESCSVNYTTDFIYQLYSEEGKGVFDCRKNVLGHMQQGGAPSPFDRNFGTKISAKAMEWISAKLKGSQGTGKKFVSDDSICVLGICKRDLLFQPVAELKKVTDFEHRIPKEQWWLKLRPIMKILAKYEASYDMSDSGKLESLQHHEEL |
